{"sequences": {"note": "By UniProt entry, the sequences of proteins in these tests, tags left out.", "UniProt Q14457": "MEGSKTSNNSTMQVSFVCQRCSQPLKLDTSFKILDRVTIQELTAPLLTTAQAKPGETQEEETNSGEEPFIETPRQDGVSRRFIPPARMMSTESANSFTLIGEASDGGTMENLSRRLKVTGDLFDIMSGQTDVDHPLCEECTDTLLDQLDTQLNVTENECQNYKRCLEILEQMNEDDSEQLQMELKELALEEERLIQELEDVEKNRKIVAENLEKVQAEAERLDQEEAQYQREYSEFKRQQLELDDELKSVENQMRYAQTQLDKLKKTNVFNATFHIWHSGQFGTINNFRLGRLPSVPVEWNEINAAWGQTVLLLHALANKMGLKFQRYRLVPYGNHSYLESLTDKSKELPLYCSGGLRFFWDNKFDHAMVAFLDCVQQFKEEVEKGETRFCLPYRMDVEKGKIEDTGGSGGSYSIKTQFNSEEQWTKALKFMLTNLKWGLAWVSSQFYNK", "UniProt Q6PF93": "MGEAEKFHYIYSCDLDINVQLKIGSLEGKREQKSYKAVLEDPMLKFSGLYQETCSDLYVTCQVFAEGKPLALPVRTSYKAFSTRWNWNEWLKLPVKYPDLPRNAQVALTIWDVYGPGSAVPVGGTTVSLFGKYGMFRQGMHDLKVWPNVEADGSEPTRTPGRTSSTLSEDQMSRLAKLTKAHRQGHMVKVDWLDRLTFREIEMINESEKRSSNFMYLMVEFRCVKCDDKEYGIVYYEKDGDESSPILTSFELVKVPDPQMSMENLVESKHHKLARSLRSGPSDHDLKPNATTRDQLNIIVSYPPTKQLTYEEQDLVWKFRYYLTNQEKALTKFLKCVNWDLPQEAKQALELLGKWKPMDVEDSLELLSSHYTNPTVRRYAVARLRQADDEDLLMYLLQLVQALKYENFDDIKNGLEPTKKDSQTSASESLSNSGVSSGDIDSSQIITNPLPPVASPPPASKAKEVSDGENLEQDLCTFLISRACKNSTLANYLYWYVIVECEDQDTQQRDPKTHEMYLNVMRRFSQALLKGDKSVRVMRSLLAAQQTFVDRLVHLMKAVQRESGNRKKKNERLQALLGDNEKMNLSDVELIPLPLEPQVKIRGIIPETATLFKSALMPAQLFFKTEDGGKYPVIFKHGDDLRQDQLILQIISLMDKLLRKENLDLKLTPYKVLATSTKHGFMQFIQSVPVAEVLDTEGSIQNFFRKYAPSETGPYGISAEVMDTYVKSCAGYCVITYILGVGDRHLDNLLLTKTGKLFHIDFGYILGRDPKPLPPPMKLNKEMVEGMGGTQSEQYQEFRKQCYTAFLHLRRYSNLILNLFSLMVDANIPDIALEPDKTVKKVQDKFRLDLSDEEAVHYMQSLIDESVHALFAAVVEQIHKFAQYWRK", "UniProt Q9JMA1": "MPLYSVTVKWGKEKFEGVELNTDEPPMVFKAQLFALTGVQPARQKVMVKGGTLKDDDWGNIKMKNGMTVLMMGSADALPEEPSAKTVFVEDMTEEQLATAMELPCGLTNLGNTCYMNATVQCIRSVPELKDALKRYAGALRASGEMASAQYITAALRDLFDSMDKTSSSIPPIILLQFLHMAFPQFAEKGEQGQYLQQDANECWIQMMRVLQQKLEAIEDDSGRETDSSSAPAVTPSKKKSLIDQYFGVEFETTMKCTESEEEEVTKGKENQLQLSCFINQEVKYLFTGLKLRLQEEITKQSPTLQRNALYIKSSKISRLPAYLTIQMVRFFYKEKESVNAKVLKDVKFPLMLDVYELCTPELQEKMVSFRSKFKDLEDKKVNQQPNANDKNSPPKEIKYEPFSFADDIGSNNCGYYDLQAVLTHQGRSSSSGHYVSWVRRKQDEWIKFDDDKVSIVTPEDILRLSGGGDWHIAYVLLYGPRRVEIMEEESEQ"}, "source": "paper PMC7441392", "molecules": {"B1": {"name": "Bcl2, P10417 1-236 (protein)", "chain": "MAQAGRTGYDNREIVMKYIHYKLSQRGYEWDAGDADAAPLGAAPTPGIFSFQPESNPMPAVHRDMAARTSPLRPLVATAGPALSPVPPVVHLTLRRAGDDFSRRYRRDFAEMSSQLHLTPFTARGRFATVVEELFRDGVNWGRIVAFFEFGGVMCVESVNREMSPLVDNIALWMTEYLNRHLHTWIQDNGGWDAFVELYGPSMRPLFDFSWLSLKTLLSLALVGACITLGAYLGHK"}}, "key": {"[1]": {"target": "T1, TRAF6 (TNF receptor associated factor 6) (mouse (endogenous in RAW264.7)) (UniProt P70196)", "T1 sequence": "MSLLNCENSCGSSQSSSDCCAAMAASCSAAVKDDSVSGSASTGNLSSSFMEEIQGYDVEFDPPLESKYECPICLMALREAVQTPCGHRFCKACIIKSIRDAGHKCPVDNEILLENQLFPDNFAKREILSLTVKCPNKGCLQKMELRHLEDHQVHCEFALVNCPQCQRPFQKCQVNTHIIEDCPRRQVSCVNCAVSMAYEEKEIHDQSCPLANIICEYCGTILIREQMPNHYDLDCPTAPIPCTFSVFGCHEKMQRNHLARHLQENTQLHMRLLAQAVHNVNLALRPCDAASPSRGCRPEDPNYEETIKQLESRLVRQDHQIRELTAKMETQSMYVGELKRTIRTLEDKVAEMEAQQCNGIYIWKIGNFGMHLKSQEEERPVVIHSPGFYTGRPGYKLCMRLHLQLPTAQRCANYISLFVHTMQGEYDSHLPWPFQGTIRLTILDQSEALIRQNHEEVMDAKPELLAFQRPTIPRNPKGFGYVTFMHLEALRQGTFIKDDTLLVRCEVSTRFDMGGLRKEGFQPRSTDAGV", "experiment": "co-IP; endogenous proteins in RAW264.7 cell lysates; cells incubated with S5 (5, 10, and 20 μM) or DMSO for 6 h; antibody at 4 °C overnight, protein A/G-agarose beads, western blot"}, "Flag-tagged Beclin1": {"target": "Flag-tagged Beclin1 (UniProt Q14457)", "experiment": "co-IP; HEK293T cells transfected with tagged plasmids for 48 h, incubated with S5 for 6 h; western blot"}, "[2]": {"target": "Beclin1 (mouse (endogenous in RAW264.7)) (UniProt O88597)", "experiment": "co-IP; endogenous proteins in RAW264.7 cell lysates; cells incubated with S5 (5, 10, and 20 μM) or DMSO for 6 h; antibody at 4 °C overnight, protein A/G-agarose beads, western blot"}, "[3]": {"target": "T2, Beclin1 (mouse (endogenous in RAW264.7)), O88597", "T2 chain": "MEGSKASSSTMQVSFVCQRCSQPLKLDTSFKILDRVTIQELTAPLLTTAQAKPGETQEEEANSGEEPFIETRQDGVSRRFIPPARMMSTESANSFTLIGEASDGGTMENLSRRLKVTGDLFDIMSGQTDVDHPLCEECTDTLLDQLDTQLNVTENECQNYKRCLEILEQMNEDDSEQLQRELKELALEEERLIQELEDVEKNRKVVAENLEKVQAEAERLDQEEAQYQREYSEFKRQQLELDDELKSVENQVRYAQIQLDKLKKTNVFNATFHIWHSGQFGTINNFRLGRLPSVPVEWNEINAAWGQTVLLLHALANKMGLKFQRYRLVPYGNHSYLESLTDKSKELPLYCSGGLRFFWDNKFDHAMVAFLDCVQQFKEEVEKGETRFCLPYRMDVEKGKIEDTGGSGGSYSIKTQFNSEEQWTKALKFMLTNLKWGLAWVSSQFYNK", "experiment": "co-IP; endogenous proteins in RAW264.7 cell lysates; cells incubated with S5 (5, 10, and 20 μM) or DMSO for 6 h; antibody at 4 °C overnight, protein A/G-agarose beads, western blot", "conditions": "remark: other sources report otherwise"}}, "note": "Results are given in words; binding and its absence hold for the method and conditions named. Binding seen in cells or lysates may run through a third protein. Some binding calls cover weakened binding; strength is not graded here."}
{"molecule": "Beclin1 (from UniProt O88597 1-448)", "values": [{"measurement": "binding", "setting": "[1]", "result": "binds"}]}
{"molecule": "HA-tagged Bcl2 (from UniProt P10415 1-239)", "values": [{"measurement": "binding", "setting": "Flag-tagged Beclin1", "result": "binds"}]}
{"molecule": "class III PI3K (from UniProt Q6PF93 1-887)", "values": [{"measurement": "binding", "setting": "[2]", "result": "binds"}]}
{"molecule": "ubiquitin-specific proteases 14 (USP14) (from UniProt Q9JMA1 1-493) (enzyme)", "values": [{"measurement": "binding", "setting": "[1]", "result": "binds"}]}
{"molecule": "B1", "values": [{"measurement": "binding", "setting": "[3]", "result": "binds"}]}
